For at least one compound, name, drawing or mass did not settle the structure.
Test system: CCRF-CEM cells
Assay: Viable cell counts (trypan blue) of CCRF-CEM cells treated with asparaginase and other agents
Format: cell-based, human
Conditions: shRNA-transduced cells, 8 days; rapamycin 1 nM, RAD001 10 nM, AZD2014 10 nM
Description: Cells (25,000 per well) were seeded in 100 μl of complete growth medium in 96-well plates and incubated with chemotherapeutic agents or vehicle. T-ALL cells were split every 48 hours in a 1:5 ratio. Briefly, 20 μl of cells were mixed with 80 μl fresh culture medium, supplemented with vehicle or chemotherapeutic drugs at the indicated doses. AML cells were split every 72 hours as described above. Cell viability was assessed by counting viable cells based on trypan blue vital dye staining (Invitrogen), according to the manufacturer's instructions. Chemotherapeutic drugs included: PEG-asparaginase (“oncaspar”, Shire, Lexington, MA), dexamethasone (Sigma-Aldrich), vincristine (Selleckchem, Houston, TX), doxorubicin (Sigma-Aldrich), 6-mercaptopurine (Abcam, Cambridge, UK), CHIR99021 (Selleckchem), bortezomib (Selleckchem), rapamycin (Selleckchem), RAD001 (Selleckchem), AZD2014 (Selleckchem), and Wnt3A (R&D systems, Minneapolis, MN). BRD0705 and […] were synthesized as described^15. Caspase 3/7 activity was assessed using the Caspase Glo 3/7 Assay (Promega, Madison, WI) according to the manufacturer's instructions.

SMILES: CO[C@H]1C[C@@H]2CC[C@@H](C)[C@@](O)(O2)C(=O)C(=O)N2CCCC[C@H]2C(=O)O[C@H]([C@H](C)C[C@@H]2CC[C@@H](O)[C@H](OC)C2)CC(=O)[C@H](C)/C=C(\C)[C@@H](O)[C@@H](OC)C(=O)[C@H](C)C[C@H](C)/C=C/C=C/C=C/1C [rapamycin]
- effect on Wnt-induced sensitization to asparaginase: had no effect

— US20260151467A1, “METHOD FOR TREATING CANCER” (THE CHILDREN'S MEDICAL CENTER CORPORATION, priority 2018, published 2026)
